Measurements as given in PMC5523156.
Results are given in words; binding and its absence hold for the method and conditions named. Some entries that bind do so weakly or less than the wild type.

Chains of the proteins cited; added tags and fusions are not shown. Residues count along the entry.
UniProt P14780, residues 107-707: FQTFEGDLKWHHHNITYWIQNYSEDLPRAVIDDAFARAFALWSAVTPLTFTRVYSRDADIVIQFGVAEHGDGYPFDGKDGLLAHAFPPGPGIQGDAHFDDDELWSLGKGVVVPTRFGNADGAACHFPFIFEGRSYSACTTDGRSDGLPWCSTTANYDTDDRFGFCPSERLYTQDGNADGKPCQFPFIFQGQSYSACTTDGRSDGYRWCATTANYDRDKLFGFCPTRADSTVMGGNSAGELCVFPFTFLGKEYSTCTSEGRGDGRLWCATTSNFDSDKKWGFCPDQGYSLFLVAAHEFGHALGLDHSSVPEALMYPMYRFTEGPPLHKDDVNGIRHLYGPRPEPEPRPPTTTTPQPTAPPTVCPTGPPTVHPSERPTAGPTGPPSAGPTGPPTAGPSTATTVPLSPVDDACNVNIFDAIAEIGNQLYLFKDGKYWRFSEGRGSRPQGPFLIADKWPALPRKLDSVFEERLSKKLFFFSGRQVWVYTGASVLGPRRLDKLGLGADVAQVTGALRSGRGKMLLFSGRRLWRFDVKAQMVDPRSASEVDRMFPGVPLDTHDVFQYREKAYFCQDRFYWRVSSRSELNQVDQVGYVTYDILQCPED
UniProt P01033, residues 24-207: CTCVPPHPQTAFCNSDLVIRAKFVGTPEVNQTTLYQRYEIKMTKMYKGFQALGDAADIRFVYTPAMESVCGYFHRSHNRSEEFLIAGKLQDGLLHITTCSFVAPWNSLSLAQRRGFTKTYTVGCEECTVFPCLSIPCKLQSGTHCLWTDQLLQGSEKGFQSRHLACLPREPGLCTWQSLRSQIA

Target: endogenous/native MMP-9 in human plasma (human (endogenous in plasma)) (UniProt P14780)
Assay: AlphaScreen or HTRF; AlphaLISA no-wash sandwich immunoassay on 5 uL human plasma plus 5 uL assay buffer; anti-MMP-9 acceptor beads and biotinylated anti-TIMP-1 antibody with streptavidin donor beads, room temperature; plasma of normoalbuminuric (n = 16) and albuminuric (n = 20) hypertensive …; also tested with H2O2; semi-quantitative

## endogenous/native TIMP-1 in human plasma (from UniProt P01033 24-207)
  binding: binds
